Results deposited as PubChem BioAssay AID720710 (VTT Finland, 2013).

- Test: 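Genes whose loss lowers DNA synthesis when an oncogene drives replication stress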 (primary screen)
- Cell system: human U-2 OS bone cancer cells, parental and a cyclin E (CCNE1) overexpressing line
- Reagents: single siRNA against human genes, 1 µM siRNA in the printed spot mix
- Timing: 67 h
- Challenge: half the arrays: hydroxyurea 2 mM for 16 h, then 3 h recovery; other arrays untreated
- Detection: 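DNA synthesis measured as imaged EdU uptake per nucleus (DAPI) at 67 h, normalised to subgrid median and given as z-score versus non-targeting controls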
- Reading the numbers: EdU z-score, cyclin E line, hydroxyurea and EdU z-score, parental, hydroxyurea and EdU z-score, cyclin E line, untreated and EdU z-score, parental, untreated: higher = more DNA synthesis than non-targeting controls
The deposit covers about 1,380 reagents; shown is a part drawn at random. 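One array per condition without replicates; hydroxyurea arrays received 2 mM for 16 h plus 3 h recovery.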 Reagents against one gene are numbered here.

EdU z-score, cyclin E line, hydroxyurea	EdU z-score, parental, hydroxyurea	EdU z-score, cyclin E line, untreated	EdU z-score, parental, untreated	gene knocked down	reagent
-0.274	1.32	-1.19	-0.46	RPS6KA5 (GeneID 9252)	1
-0.185	2.02	-0.381	1.4	RPS6KA5 (GeneID 9252)	2
-0.154	-2.73	-3.58	-1.81	DKFZP686M0199	1
1.7	5.03	0.407	-0.0762	DKFZP686M0199	2
-0.131	-0.229	-1.48	-0.728	H4C6 (GeneID 8361)	1
1.3	4.65	-0.0491	0.711	H4C6 (GeneID 8361)	2
-0.459	-2.25	-1.47	-1.17	SLC35F1 (GeneID 222553)	1
-0.14	3.8	-0.549	0.677	SLC35F1 (GeneID 222553)	2
-2.1	-1.36	0.085	-1.74	NPRL3 (GeneID 8131)	1
0.583	0.268	1.85	0.655	NPRL3 (GeneID 8131)	2
-1.49	-4.12	-1.07	-0.986	H2BC14 (GeneID 8342)	1
-0.76	1.72	-0.513	-0.238	H2BC14 (GeneID 8342)	2
0.0665	0.272	-2.6	-0.719	ATMIN (GeneID 23300)	1
0.73	2.9	-1.51	0.735	ATMIN (GeneID 23300)	2
-0.134	-0.792	-1.4	-1.68	H2AC14 (GeneID 8331)	1
0.307	2.37	-0.555	-0.863	H2AC14 (GeneID 8331)	2
-0.0512	-0.288	-3.57	-1.47	TYMP (GeneID 1890)	1
0.358	3.23	-1.96	-0.428	TYMP (GeneID 1890)	2
-1.14	-2.38	-2.98	-3.23	PCNA (GeneID 5111)	1
-0.331	-0.956	-2.06	1.26	PCNA (GeneID 5111)	2
-0.737	-0.495	0.244	-1.64	DCLRE1A (GeneID 9937)	1
1.98	4.43	0.871	-0.725	DCLRE1A (GeneID 9937)	2
-2.08	-0.161	-0.611	-1.47	ATRX (GeneID 546)	1
0.0366	0.415	0.15	-0.572	ATRX (GeneID 546)	2
-2.03	-1.36	-1.59	-1.37	NAE1 (GeneID 8883)	1
-0.323	-0.56	-0.754	-0.923	NAE1 (GeneID 8883)	2
-0.937	-0.867	-3.3	-1.05	H2AC20 (GeneID 8338)	1
-0.13	-0.813	-0.851	-0.000375	H2AC20 (GeneID 8338)	2
-0.351	0.193	-0.218	-1.78	FOXN3 (GeneID 1112)	1
0.106	2.7	0.254	0.0548	FOXN3 (GeneID 1112)	2
-1.2	-2.26	-1.95	0.0614	VPS4A (GeneID 27183)	1
-0.883	-0.136	-0.263	0.621	VPS4A (GeneID 27183)	2
-0.935	-3.27	-1.91	-0.773	ORC6 (GeneID 23594)	1
-0.0277	0.707	0.287	0.105	ORC6 (GeneID 23594)	2
-0.549	-3.17	-2.04	-1.48	MAP3K20 (GeneID 51776)	1
-0.388	0.38	1.19	-0.57	MAP3K20 (GeneID 51776)	2
-0.801	-1.46	-2.2	-1.82	POLE2 (GeneID 5427)	1
-0.713	-0.0349	-1.19	-0.305	POLE2 (GeneID 5427)	2
-0.273	-0.564	-3.76	-1.66	DCLRE1B (GeneID 64858)	1
0.648	1.38	-0.439	0.793	DCLRE1B (GeneID 64858)	2
